In patent US20240368259A1 one finds binding data, which are given here for 1 molecule.

No constants are given. Whether binding was seen depends on the method and setting. Some binding calls cover weakened binding; strength is not graded here.

This assay addresses 1189 SCR1 (human LEFTY1-human Fc fusion protein) (human). The assay is described as follows: ELISA on plates coated with LEFTY1 SCR (FIG. 26).

B1: anti-LEFTY1 1189 specific mIgG1 antibody clone 1 H11 (antibody, V domains shown)
VH: QSLEESGGDLVKPEGSLTLTCTASGFSFSSSYWICWVRQAPGKGLERIACIYAGSTGTTYYASWAKGRFTISKTSSTTVTLQMTSLTAADTATYFCARGDYNSGWGVNLWGPGTLVTISS
VL: DVVMTQTASSASEPVGGTVTIKCQASESISSNLAWYQQKPGQRPKLLIYSASTLASGVPSRFSGSGSGTEFTLTISDLECADAATYYCQCTDYVNSGAFGGGTEVVVKR
As to B1, the binding entry is on record as “binds”.
